Library compounds against nucleic acid targets

Source: the ROBIN nucleic acid binder screens (doi:10.1002/anie.202211358).

Oligonucleotides screened, 5′ to 3′:
T1: TPP riboswitch RNA three-way junction, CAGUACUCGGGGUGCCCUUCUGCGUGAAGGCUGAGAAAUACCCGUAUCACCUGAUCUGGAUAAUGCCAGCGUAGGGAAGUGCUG. About 24,000 compounds screened, about 160 hits.
T2: PreQ1 riboswitch RNA pseudoknot, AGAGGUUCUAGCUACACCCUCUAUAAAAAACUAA. From B. subtilis. About 24,000 compounds screened, about 170 hits.

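The test is a small-molecule microarray: each compound is printed twice on a reactive slide, and binding shows as fluorescence of the labelled oligonucleotide after washing. The data file lists only calls. An earlier report of the laboratory on the PreQ1, TPP and SAM-II riboswitches (doi:10.1038/s41467-019-09493-3) used 1 µM RNA for 2 h and required a mean Z-score above 3 (spot signal-to-noise against the whole library), a score well above that on a control array, and duplicate spots agreeing (coefficient of variation under 100); it then also set aside compounds that hit other targets, which this list keeps. The cut-offs behind this list may differ. These are primary screening calls, not affinities; a compound without a hit may have attached poorly or may still bind in solution.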
A compound is marked active if it was called a hit and inactive if it was screened but was not.
Compounds were drawn at random from those tested, without regard to their results.

* CC(=Cc1ccccc1)C1C(C#N)=C(N)Oc2[nH]nc(C)c21 (configuration not stated) | T1: inactive; T2: inactive
* CCN1Cc2cccc(CNc3ccc(C)c(Cl)c3)c2C1 | T1: inactive; T2: inactive
* COc1ccc(C2=NOC(CO)C2)cc1 (configuration not stated) | T1: inactive; T2: inactive
* COc1ccc(-c2cc(CNCC3(O)CCNC3)no2)cc1 (configuration not stated) | T1: inactive; T2: inactive
* O=C(CNc1ccc(C(F)(F)F)cc1[N+](=O)[O-])N1CCOCC1 | T1: inactive; T2: inactive
* CCc1nc(NCCC(C)C)c(C#N)c2c1COC(C)(C)C2 | T1: inactive; T2: inactive
* CN(C)c1cncc(-c2cc(O)cc(CCC3CCCCN3)c2)n1 (configuration not stated) | T1: inactive; T2: inactive
* CC(C)(O)CCc1ccc(C(=O)NCCc2nnc(N)s2)cc1 | T1: inactive; T2: inactive
* OC(CN1C2=NCCN2c2ccccc21)c1ccccc1 (configuration not stated) | T1: inactive; T2: inactive
* CCn1nc(CC(C)C)cc1C(=O)NC[C@@H]1C[C@H](F)CN1 | T1: inactive; T2: inactive
* O=C(N1CCOCC1)N1CCN(c2ncnc3[nH]ccc23)CC(O)C1 (configuration not stated) | T1: inactive; T2: inactive
* CCCc1n[nH]c2c1C(c1ccc(Br)cc1)C(C#N)=C(N)O2 (configuration not stated) | T1: inactive; T2: inactive
* Cc1cccc(-n2c(O)cnc2Nc2nc(C)cc(C)n2)c1 | T1: inactive; T2: inactive
* O=C1c2ccccc2C(=O)c2c1cccc2-n1nnc2ccccc21 | T1: inactive; T2: inactive
* COC1CCC(C(=O)c2ccc3nc4c(cc3c2)CCCO4)CC1 (configuration not stated) | T1: inactive; T2: inactive
* Cc1cc(C)n2c(SCCO)nnc2n1 | T1: inactive; T2: inactive
* N#CC1=C(N)N(c2ccc(Cl)cc2)C2=C(C(=O)CCC2)C1c1cccnc1 (configuration not stated) | T1: inactive; T2: inactive
* CCCc1nc2sc3c(NCCN(C)C)ncnc3c2c2c1CCCC2 | T1: inactive; T2: inactive
* Cc1cc(C)c2c(N)c(C(=O)Nc3cccc(C)c3C)sc2n1 | T1: inactive; T2: inactive
* CC(c1nc(-c2ccncc2)nn1CCO)N(C)C1CCCCC1 (configuration not stated) | T1: inactive; T2: inactive
* Cc1cccc(-c2cc(Nc3cccc(C(F)(F)F)c3)nc(C)n2)c1 | T1: inactive; T2: inactive
* Cc1c(C)n(Cc2ccccc2)c2ncnc(NCCO)c12 | T1: inactive; T2: inactive
* COCc1nc2ccccc2n1CC(O)COc1c(C)cccc1C (configuration not stated) | T1: inactive; T2: inactive
* COc1ccc(CCNCCc2ccc(OC)cc2)cc1 | T1: inactive; T2: inactive
* O=[N+]([O-])c1c(N2CCN(CCO)CC2)nc2ccccn12 | T1: inactive; T2: inactive
* COc1ccc(CNc2ncnc3scc(-c4ccc(C)cc4)c23)cc1 | T1: inactive; T2: inactive
* O=S1(=O)N=C(NCCCO)c2ccccc21 | T1: inactive; T2: inactive
* COc1ccc(CC2=NC(=O)C3C(C)N=C([C@@H](CCc4ccccc4)[C@@H](C)O)N3N2)cc1OC (some centres not stated) | T1: inactive; T2: inactive
* CCOC(=O)[C@H](CCc1ccccc1)N[C@@H](C)C(=O)N1CCC[C@@H]1C(=O)O | T1: inactive; T2: inactive
* Cc1nc(C(C)C)sc1C(=O)N1CCNCC1C(=O)N1CCCC1 (configuration not stated) | T1: inactive; T2: inactive
* NC(=O)c1ccc[n+](CCO)c1.[Cl-] | T1: inactive; T2: inactive
* CC(=O)N1CCN(Cc2ccc(C(F)(F)F)cc2F)CC(O)C1 (configuration not stated) | T1: inactive; T2: inactive
* N#Cc1cccc(C(=O)N[C@H]2CN[C@H](C(=O)NCC3(O)CCCCC3)C2)c1 | T1: inactive; T2: inactive
* Cc1ccc([C@@H]2O[C@H](CO)[C@@H](O)[C@H](O)[C@@H]2O)cc1Cc1ccc(-c2ccc(F)cc2)s1 | T1: inactive; T2: inactive
* COc1ccc(Br)cc1CNCc1ccc(OC)c(OC)c1 | T1: inactive; T2: inactive
* CC(C)C(=O)Oc1ccc(NC2=NS(=O)(=O)c3ccccc32)cc1 | T1: inactive; T2: inactive
* O=C1C=CC(=O)N1c1ccc(I)cc1Cl | T1: inactive; T2: inactive
* CC1(CN2CCCC2)CCC(NC(=O)C(c2ccccc2)c2ccccc2)C(C)(C)O1 (configuration not stated) | T1: inactive; T2: inactive

Some entries from above, unchanged:

{"smiles": "O=C1c2ccccc2C(=O)c2c1cccc2-n1nnc2ccccc21", "T1": "inactive", "T2": "inactive"}
{"smiles": "CCn1nc(CC(C)C)cc1C(=O)NC[C@@H]1C[C@H](F)CN1", "T1": "inactive", "T2": "inactive"}